Measurements as given in US9464120B2, “Compositions for treatment of celiac disease” (ImmusanT, Inc., priority 2008, dated 2016).
Some of these results come from one statement about several compounds together.

System: gluten peptide-specific T cells in PBMC from HLA-DQ2+ celiac disease donors
Test: IFNγ ELISpot of PBMC collected on day 6 after oral gluten challenge
Assay type: cell-based, human
Conditions: wheat, rye and barley second round libraries

SEQ ID NO:133: second round gluten library peptide; sequence not printed in text (QPFPQPEQPFSW; B10-E7)
number of donors in whom peptide was dominant (at least 70% of response of most active peptide in library): at least 1 donor
proportion of donors in whom peptide was dominant: more than 10%
